Measurements: article PMC8527527

Target: T1, MED18 fused to the C-terminal YFP fragment (MED18-Yc) (Arabidopsis) (UniProt Q9SJZ6)
T1 sequence: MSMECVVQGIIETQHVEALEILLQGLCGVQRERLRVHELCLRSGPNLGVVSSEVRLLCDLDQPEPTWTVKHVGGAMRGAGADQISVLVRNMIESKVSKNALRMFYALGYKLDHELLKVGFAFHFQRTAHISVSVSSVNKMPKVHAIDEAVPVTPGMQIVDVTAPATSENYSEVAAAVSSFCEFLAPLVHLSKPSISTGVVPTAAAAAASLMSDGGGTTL
Test: split reporter; BiFC with split YFP (pFGC-N-YFP, pFGC-C-YFP) in Agrobacterium-infiltrated N. benthamiana leaves, examined 48 h after infiltration by confocal microscopy

Row | binding | Substance
1 | no binding | N-terminal half of NRPD2a fused to the N-terminal YFP fragment (NRPD2aNTD-Yn) (Arabidopsis) (domain or fragment)
2 | binds | C-terminal half of NRPD2a fused to the N-terminal YFP fragment (NRPD2aCTD-Yn) (Arabidopsis) (domain or fragment)

These are yes or no findings as the source states them, for the method shown. Binding seen in cells or lysates may run through a third protein. A result given as binding can be weak or reduced; the word gives no strength. Where a sequence is shown, tags or fusion partners need not be part of it.
